Assay [1] deals with T1, tagged PCGF6 (293T transfection) (UniProt Q9BYE7).
T1 sequence: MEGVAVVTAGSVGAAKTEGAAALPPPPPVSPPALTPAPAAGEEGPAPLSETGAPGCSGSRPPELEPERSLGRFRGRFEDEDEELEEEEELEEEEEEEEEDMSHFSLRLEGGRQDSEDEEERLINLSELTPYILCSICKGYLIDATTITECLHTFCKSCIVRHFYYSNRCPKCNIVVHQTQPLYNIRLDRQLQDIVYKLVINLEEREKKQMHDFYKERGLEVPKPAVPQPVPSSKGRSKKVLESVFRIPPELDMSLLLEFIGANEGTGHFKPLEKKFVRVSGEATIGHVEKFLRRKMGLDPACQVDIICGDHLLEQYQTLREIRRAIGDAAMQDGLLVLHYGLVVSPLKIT
Kind of assay: co-IP; 293T cells transfected with tagged PCGF6 and tagged MYC; lysate.

Amino acid sequences for entries named in this document (tags omitted).
UniProt P01106: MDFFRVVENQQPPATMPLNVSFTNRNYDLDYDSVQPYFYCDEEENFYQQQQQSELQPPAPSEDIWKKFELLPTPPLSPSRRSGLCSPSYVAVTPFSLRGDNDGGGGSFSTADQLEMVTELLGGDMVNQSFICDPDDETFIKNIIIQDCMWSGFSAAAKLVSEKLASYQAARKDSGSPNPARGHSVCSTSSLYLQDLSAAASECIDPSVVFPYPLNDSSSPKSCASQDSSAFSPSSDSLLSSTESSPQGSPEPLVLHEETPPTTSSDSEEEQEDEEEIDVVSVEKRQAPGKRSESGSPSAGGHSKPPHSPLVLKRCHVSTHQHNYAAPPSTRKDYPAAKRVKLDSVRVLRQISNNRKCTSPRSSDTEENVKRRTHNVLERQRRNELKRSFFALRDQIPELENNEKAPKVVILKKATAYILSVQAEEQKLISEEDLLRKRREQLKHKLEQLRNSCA
UniProt Q99496: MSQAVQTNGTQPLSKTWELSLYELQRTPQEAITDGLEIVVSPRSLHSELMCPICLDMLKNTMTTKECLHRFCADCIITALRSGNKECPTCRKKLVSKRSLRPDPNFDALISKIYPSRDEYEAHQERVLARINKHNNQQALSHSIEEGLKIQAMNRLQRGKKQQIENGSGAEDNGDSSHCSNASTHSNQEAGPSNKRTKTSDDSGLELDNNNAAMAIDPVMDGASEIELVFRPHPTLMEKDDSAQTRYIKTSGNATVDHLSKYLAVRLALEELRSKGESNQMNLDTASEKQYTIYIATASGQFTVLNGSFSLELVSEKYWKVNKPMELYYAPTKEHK

Assay [2] concerns the target T2, Polycomb group ring finger 6 (PCGF6) (human (endogenous in human PSCs)) (UniProt Q9BYE7).
T2 sequence: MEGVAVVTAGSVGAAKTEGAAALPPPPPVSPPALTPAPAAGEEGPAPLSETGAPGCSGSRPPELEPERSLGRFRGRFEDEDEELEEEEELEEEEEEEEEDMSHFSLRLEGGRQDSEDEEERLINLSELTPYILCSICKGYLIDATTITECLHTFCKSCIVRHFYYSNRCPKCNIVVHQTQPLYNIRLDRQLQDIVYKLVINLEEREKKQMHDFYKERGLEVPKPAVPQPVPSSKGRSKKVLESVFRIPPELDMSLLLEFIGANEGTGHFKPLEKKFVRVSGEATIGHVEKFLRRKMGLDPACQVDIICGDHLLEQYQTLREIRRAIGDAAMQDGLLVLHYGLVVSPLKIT
Kind of assay: co-IP; endogenous PCGF6 and MYC, human PSC lysate, anti-PCGF6 or anti-MYC antibody, Protein A/G Dynabeads, 4 °C; rabbit IgG as control; western blot. (In general: In western blotting, separated proteins are transferred to a membrane and probed.)

For assay [3], the target named is MYC (human (endogenous in human PSCs)) (UniProt P01106). The description is as above.
Assay [4] addresses GST-MYC (UniProt P01106). Kind of assay: pull-down; GST-MYC (20 μg) on Glutathione Sepharose 4B, incubated with purified His-PCGF6 (20 μg) for at least 4 h at 4 °C; beads washed five times; western blot; both purified.
Assay [5] concerns the target tagged MYC (293T transfection) (UniProt P01106). Kind of assay: co-IP; 293T cells transfected with tagged PCGF6 and tagged MYC; lysate.
Assay [6] concerns the target RING1B (human (endogenous in human PSCs)) (UniProt Q99496). Kind of assay: co-IP; endogenous proteins, PCGF6-KO human PSC lysate, anti-RING1B antibody, Protein A/G Dynabeads, 4 °C; washed with RIPA and wash buffer (500 mM NaCl); western blot.
The target is the same in assay [7]. Kind of assay: co-IP; endogenous proteins, wild-type human PSC lysate, anti-RING1B antibody, Protein A/G Dynabeads, 4 °C; washed with RIPA and wash buffer (20 mM Tris-HCl, 500 mM NaCl, 2 mM EDTA, 1% Triton X-100, 0.1% SDS, pH 8.0); western blot.

No constants are given. Whether binding was seen depends on the method and setting. For some of these results: In cells and extracts the contact can be indirect. Some binding calls cover weakened binding; strength is not graded here. For some of these results: Where a sequence is shown, tags or fusion partners need not be part of it.

“tagged MYC (293T transfection) (from UniProt P01106 1-454)”: the binding entry in assay [1] is “binds”. For MYC (from UniProt P01106 1-454), the binding result in assay [2] is “binds”.

B1: Polycomb group ring finger 6 (PCGF6) (protein, UniProt Q9BYE7 1-350)
chain: MEGVAVVTAGSVGAAKTEGAAALPPPPPVSPPALTPAPAAGEEGPAPLSETGAPGCSGSRPPELEPERSLGRFRGRFEDEDEELEEEEELEEEEEEEEEDMSHFSLRLEGGRQDSEDEEERLINLSELTPYILCSICKGYLIDATTITECLHTFCKSCIVRHFYYSNRCPKCNIVVHQTQPLYNIRLDRQLQDIVYKLVINLEEREKKQMHDFYKERGLEVPKPAVPQPVPSSKGRSKKVLESVFRIPPELDMSLLLEFIGANEGTGHFKPLEKKFVRVSGEATIGHVEKFLRRKMGLDPACQVDIICGDHLLEQYQTLREIRRAIGDAAMQDGLLVLHYGLVVSPLKIT
In the case of B1, the binding entry in assay [3] is “binds”.

B2: His-PCGF6 (protein, UniProt Q9BYE7 1-350)
chain: MEGVAVVTAGSVGAAKTEGAAALPPPPPVSPPALTPAPAAGEEGPAPLSETGAPGCSGSRPPELEPERSLGRFRGRFEDEDEELEEEEELEEEEEEEEEDMSHFSLRLEGGRQDSEDEEERLINLSELTPYILCSICKGYLIDATTITECLHTFCKSCIVRHFYYSNRCPKCNIVVHQTQPLYNIRLDRQLQDIVYKLVINLEEREKKQMHDFYKERGLEVPKPAVPQPVPSSKGRSKKVLESVFRIPPELDMSLLLEFIGANEGTGHFKPLEKKFVRVSGEATIGHVEKFLRRKMGLDPACQVDIICGDHLLEQYQTLREIRRAIGDAAMQDGLLVLHYGLVVSPLKIT
Consider B2, for which the binding entry in assay [4] was “binds”.

B3: tagged PCGF6 (293T transfection) (protein, UniProt Q9BYE7 1-350)
chain: MEGVAVVTAGSVGAAKTEGAAALPPPPPVSPPALTPAPAAGEEGPAPLSETGAPGCSGSRPPELEPERSLGRFRGRFEDEDEELEEEEELEEEEEEEEEDMSHFSLRLEGGRQDSEDEEERLINLSELTPYILCSICKGYLIDATTITECLHTFCKSCIVRHFYYSNRCPKCNIVVHQTQPLYNIRLDRQLQDIVYKLVINLEEREKKQMHDFYKERGLEVPKPAVPQPVPSSKGRSKKVLESVFRIPPELDMSLLLEFIGANEGTGHFKPLEKKFVRVSGEATIGHVEKFLRRKMGLDPACQVDIICGDHLLEQYQTLREIRRAIGDAAMQDGLLVLHYGLVVSPLKIT
In the case of B3, the binding result in assay [5] is on record as “binds”.

B4: RYBP (protein, UniProt Q8N488 1-228)
chain: MTMGDKKSPTRPKRQAKPAADEGFWDCSVCTFRNSAEAFKCSICDVRKGTSTRKPRINSQLVAQQVAQQYATPPPPKKEKKEKVEKQDKEKPEKDKEISPSVTKKNTNKKTKPKSDILKDPPSEANSIQSANATTKTSETNHTSRPRLKNVDRSTAQQLAVTVGNVTVIITDFKEKTRSSSTSSSTVTSSAGSEQQNQSSSGSESTDKGSSRSSTPKGDMSAVNDESF
Turning to B4, the binding entry in assay [6] and in assay [7] was “binds” each time.
